# Test results as given in paper PMC2031890.
# The chains behind the UniProt entries cited, without tags or fusion partners.
# UniProt Q9NB71: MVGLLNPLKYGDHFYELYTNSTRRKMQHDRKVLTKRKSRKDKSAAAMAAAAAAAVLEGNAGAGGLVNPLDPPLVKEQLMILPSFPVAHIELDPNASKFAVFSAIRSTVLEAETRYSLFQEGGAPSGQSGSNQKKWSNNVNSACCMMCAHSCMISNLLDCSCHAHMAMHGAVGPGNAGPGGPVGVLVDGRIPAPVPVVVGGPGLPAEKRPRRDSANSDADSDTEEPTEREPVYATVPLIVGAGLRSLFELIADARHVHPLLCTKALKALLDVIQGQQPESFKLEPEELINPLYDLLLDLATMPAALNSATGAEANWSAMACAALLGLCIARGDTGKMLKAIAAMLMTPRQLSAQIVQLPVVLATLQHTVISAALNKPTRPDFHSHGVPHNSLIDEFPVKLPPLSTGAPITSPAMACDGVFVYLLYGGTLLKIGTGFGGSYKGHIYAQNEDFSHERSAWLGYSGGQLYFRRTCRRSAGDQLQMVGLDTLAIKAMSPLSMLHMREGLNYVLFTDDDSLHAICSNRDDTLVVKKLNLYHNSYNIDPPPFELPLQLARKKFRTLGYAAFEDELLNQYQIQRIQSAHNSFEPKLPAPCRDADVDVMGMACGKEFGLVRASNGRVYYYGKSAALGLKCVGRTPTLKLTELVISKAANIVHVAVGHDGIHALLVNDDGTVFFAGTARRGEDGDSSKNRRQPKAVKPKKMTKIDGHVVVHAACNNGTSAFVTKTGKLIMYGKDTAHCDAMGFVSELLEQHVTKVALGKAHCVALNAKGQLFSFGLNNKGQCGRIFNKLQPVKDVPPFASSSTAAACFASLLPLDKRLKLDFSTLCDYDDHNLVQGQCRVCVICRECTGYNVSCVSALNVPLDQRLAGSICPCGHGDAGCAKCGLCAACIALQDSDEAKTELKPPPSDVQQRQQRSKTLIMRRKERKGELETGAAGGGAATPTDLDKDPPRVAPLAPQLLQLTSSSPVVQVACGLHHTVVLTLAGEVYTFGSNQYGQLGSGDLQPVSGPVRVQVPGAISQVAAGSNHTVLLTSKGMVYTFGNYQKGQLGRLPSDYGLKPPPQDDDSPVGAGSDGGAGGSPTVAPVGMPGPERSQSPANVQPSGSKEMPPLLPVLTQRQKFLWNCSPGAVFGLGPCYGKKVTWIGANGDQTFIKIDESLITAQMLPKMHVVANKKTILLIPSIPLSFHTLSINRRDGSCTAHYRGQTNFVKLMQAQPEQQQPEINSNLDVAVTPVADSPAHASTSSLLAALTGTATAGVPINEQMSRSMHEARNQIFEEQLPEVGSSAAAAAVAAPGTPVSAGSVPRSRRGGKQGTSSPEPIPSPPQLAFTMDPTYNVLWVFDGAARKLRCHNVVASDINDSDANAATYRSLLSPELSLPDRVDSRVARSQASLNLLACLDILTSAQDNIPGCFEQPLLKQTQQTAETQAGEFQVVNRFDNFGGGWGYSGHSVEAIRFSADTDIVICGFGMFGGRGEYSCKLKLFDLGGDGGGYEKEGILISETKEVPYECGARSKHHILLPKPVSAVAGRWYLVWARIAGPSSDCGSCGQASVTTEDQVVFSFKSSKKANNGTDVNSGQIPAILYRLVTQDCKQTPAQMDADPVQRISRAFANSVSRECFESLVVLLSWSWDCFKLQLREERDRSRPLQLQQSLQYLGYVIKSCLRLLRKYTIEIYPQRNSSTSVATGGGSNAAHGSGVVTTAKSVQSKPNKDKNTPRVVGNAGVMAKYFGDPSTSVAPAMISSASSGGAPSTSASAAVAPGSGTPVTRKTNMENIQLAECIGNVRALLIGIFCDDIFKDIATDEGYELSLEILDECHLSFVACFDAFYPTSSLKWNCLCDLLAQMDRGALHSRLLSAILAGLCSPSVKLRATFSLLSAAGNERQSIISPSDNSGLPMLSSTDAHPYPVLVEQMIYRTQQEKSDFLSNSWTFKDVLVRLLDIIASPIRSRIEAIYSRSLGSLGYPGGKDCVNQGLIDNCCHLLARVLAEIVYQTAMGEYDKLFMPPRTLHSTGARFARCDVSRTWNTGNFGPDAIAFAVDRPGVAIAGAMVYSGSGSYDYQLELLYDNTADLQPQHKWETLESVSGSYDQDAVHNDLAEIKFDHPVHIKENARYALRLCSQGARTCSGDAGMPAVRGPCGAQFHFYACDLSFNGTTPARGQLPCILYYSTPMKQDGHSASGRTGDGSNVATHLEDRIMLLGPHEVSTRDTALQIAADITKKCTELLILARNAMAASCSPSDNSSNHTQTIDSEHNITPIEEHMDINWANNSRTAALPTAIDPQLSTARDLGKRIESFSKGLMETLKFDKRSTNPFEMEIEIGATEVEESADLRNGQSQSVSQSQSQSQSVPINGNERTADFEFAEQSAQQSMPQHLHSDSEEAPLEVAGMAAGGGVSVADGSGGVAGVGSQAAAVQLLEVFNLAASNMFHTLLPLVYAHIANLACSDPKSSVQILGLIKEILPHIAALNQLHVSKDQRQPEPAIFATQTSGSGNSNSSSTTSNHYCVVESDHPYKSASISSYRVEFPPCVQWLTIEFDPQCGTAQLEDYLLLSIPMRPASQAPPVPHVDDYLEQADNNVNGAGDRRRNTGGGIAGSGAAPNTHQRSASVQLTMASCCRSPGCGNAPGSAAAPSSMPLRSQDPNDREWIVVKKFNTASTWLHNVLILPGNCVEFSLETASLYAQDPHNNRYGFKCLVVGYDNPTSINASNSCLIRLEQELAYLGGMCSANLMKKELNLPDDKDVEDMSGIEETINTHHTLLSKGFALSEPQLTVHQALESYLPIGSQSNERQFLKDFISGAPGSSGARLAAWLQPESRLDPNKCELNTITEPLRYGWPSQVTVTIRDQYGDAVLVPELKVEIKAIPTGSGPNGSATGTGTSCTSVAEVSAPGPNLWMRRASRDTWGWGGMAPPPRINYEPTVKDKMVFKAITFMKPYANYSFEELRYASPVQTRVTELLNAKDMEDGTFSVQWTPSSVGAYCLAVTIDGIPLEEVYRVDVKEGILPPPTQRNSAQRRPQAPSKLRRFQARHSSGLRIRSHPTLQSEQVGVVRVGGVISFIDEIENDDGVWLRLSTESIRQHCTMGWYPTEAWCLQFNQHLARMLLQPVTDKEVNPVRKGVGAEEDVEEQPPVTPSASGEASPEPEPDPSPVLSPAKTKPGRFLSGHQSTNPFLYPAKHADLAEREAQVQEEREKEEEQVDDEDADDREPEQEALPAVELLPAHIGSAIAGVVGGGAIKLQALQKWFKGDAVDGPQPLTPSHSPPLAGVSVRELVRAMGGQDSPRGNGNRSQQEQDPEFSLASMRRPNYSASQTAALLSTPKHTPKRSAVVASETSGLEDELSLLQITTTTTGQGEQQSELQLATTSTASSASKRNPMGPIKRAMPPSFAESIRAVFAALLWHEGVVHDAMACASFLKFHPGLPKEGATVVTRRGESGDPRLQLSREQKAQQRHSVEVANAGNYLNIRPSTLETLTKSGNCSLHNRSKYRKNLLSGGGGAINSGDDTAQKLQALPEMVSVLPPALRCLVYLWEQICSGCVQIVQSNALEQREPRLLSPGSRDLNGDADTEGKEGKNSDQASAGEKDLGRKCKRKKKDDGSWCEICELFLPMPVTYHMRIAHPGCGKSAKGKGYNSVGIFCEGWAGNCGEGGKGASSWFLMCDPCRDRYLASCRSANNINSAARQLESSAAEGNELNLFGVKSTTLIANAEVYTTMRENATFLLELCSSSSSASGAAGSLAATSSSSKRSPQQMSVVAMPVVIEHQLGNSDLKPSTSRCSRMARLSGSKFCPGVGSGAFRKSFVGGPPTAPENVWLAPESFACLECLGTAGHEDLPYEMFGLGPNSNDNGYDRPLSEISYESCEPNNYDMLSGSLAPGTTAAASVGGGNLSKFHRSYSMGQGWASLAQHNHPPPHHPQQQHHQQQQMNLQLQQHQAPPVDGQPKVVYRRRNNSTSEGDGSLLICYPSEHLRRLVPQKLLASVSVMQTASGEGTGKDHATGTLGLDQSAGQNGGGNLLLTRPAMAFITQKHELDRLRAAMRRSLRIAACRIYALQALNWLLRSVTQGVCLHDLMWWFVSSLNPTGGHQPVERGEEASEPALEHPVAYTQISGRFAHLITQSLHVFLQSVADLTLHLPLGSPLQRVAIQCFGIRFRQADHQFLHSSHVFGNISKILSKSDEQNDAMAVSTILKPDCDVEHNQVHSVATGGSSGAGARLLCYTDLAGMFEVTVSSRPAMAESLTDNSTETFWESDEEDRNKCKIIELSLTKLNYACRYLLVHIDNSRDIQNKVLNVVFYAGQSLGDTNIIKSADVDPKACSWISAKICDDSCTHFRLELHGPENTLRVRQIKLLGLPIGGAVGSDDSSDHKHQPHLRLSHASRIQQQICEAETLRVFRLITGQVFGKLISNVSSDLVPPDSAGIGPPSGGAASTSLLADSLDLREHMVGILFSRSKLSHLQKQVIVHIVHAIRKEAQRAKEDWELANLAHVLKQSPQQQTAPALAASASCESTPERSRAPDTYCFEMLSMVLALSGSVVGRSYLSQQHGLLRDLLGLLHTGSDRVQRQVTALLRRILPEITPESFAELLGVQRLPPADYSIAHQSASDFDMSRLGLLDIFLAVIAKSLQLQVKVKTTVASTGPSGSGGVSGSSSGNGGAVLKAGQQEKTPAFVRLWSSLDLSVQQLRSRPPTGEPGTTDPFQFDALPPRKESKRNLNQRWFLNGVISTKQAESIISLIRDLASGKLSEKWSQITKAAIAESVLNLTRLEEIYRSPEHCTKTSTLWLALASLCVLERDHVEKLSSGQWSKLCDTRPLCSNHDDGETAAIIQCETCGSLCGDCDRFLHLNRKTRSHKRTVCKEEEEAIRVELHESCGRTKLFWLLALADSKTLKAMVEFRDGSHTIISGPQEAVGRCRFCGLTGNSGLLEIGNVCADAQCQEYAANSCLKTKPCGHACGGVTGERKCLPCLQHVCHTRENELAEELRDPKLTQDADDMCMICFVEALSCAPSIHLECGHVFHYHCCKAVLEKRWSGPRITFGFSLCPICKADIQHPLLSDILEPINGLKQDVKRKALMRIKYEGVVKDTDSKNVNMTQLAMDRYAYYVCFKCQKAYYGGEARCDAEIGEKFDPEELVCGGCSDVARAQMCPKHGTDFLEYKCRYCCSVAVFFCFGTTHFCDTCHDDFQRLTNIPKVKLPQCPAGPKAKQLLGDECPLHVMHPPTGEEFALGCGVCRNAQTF
# No constants are given. Whether binding was seen depends on the method and setting. Binding seen in cells or lysates may run through a third protein. Some entries that bind do so weakly or less than the wild type. Tags and fused reporters may be left off the sequences shown.
# T1: His-Myc-tagged DFsn (Drosophila) (UniProt Q9V6L9)
# T1 sequence: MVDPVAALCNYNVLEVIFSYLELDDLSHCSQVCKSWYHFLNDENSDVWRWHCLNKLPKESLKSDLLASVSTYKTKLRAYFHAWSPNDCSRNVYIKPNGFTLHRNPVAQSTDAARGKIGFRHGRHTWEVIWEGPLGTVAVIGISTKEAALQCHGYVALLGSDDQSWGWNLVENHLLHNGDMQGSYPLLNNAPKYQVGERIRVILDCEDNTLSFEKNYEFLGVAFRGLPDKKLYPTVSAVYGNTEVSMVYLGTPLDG
# What was measured:
# [1] = target: T1, His-Myc-tagged DFsn (Drosophila); assay: co-IP; third instar larval brain lysate of flies neuronally expressing His-Myc-DFsn; IP with anti-Highwire (HIW2b) or anti-Myc (9E10), protein A beads; lysis buffer Tris-HCl 50 mM pH 7.4, NaCl 150 mM, NP-40 0.2%, NaDOC 0.2%; western blot
# [2] = target: Highwire, endogenous (Drosophila (endogenous in larval brains)) (UniProt Q9NB71); assay: as above
binding [1],binding [2],Molecule
binds,,"Highwire, endogenous (from UniProt Q9NB71 1-5233) (enzyme)"
,binds,"His-Myc-tagged DFsn (protein, UniProt Q9V6L9 1-255) MVDPVAALCNYNVLEVIFSYLELDDLSHCSQVCKSWYHFLNDENSDVWRWHCLNKLPKESLKSDLLASVSTYKTKLRAYFHAWSPNDCSRNVYIKPNGFTLHRNPVAQSTDAARGKIGFRHGRHTWEVIWEGPLGTVAVIGISTKEAALQCHGYVALLGSDDQSWGWNLVENHLLHNGDMQGSYPLLNNAPKYQVGERIRVILDCEDNTLSFEKNYEFLGVAFRGLPDKKLYPTVSAVYGNTEVSMVYLGTPLDG"
